Results reported in article PMC11363328.

Protein sequences, listed by entry. Tags and fused reporters are not part of them.
UniProt P60842, whole entry: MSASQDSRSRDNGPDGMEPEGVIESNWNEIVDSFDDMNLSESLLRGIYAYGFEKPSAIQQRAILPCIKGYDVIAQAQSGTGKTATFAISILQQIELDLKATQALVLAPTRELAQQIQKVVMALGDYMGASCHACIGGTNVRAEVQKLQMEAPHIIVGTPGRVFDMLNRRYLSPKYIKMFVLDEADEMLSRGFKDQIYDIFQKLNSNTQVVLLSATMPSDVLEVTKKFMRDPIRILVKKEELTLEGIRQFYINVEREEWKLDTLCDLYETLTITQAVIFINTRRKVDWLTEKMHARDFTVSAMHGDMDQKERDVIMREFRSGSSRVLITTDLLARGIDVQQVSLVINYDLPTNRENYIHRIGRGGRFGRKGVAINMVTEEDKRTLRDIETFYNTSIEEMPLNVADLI

What was measured:
DDX3X [1] = test: fluorescence polarization, protein titration; conditions: FP: 14.4 mM HEPES-KOH pH 8, 108 mM NaCl, 1 mM MgCl2, 14.4% glycerol, 0.1% DMSO, 2 mM DTT, 10 nM probe, room temperature, 10 min, recombinant protein
DDX3X [2] = test: fluorescence polarization; conditions: 1 mM MgCl2, 14.4% glycerol, 0.1% DMSO, 2 mM DTT, 10 nM probe, room temperature, 10 min, recombinant protein
eIF4A1 = eIF4A1 (UniProt P60842); test: fluorescence polarization; conditions: 1 mM ADP+Pi with 10 uM (-)-5, (-)-7 or (-)-20, ATP needed to enhance anisotropy change; FP: 14.4 mM HEPES-KOH pH 8, 108 mM NaCl, 1 mM MgCl2, 14.4% glycerol, 0.1% DMSO, 2 mM DTT, 1 mM ATP, 10 nM probe, room temperature, 10 min; recombinant protein

AGAGAGAGAGAGAGAG [FAM-r(AG)8]
binding result (DDX3X [1]; 50 uM (-)-5, 1 mM ATP, significantly less efficacious): binds more weakly | binding result (DDX3X [1]; 50 uM (-)-7, 1 mM ATP, strongest stimulation): binds | binding result (DDX3X [2]; 10 uM (-)-5, 1 mM ATP, 1.5 uM protein, less than (-)-7 and (-)-20, FP: 14.4 mM HEPES-KOH pH 8, 108 mM NaCl): binds more weakly | binding result (DDX3X [2]; 10 uM (-)-7, 1 mM ATP, 1.5 uM protein, FP: 14.4 mM HEPES-KOH pH 8, 108 mM NaCl): binds | binding result (DDX3X [2]; 10 uM (-)-20, 1 mM ATP, 1.5 uM protein, FP: 14.4 mM HEPES-KOH pH 8, 108 mM NaCl): binds | binding result (DDX3X [2]; 1 mM ADP+Pi with 10 uM (-)-5, (-)-7 or (-)-20, ATP needed to enhance anisotropy change, FP: 14.4 mM HEPES-KOH pH 8, 108 mM NaCl, 1 mM ATP): binds more weakly | binding result (eIF4A1): binds more weakly

Construct, isoform or probe ends are uncertain for at least one entry. A weaker result is weaker than the reference pair of the same experiment. For some of these results: At least one verdict rests on a figure or table, not on a statement of the authors.
